# The structures given here were assigned with low confidence; some may be wrong.
# Amino acid sequences for entries named in this document (tags omitted).
# UniProt P42226, whole entry: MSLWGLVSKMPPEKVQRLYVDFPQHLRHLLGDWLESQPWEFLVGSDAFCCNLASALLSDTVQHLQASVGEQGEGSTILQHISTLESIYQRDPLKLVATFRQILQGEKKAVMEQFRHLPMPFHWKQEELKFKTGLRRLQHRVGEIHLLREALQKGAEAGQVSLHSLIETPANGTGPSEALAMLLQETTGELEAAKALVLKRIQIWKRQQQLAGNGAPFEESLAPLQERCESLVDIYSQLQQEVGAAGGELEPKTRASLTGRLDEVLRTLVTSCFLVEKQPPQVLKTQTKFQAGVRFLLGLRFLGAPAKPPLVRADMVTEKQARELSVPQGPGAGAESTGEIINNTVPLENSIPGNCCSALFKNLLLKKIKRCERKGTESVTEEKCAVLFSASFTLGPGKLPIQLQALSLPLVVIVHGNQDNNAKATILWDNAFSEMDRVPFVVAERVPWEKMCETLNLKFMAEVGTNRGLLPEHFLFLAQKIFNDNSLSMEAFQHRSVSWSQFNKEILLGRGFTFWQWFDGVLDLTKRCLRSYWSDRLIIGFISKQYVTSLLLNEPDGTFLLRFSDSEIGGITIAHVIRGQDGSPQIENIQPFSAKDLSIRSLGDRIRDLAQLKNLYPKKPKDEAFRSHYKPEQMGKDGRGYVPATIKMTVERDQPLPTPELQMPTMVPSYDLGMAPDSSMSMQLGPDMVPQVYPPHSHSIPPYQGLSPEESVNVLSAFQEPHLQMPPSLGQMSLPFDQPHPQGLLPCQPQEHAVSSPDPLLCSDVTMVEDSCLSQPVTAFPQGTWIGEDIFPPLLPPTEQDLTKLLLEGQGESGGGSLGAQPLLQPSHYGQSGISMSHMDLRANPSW
# Biological target: STAT6 (Homo sapiens, UniProt P42226)
# Experiment: Stat6 Degrader Assay (HiBiT based, HeLa LgBiT clone 4.14)
# Conditions: read-out: STAT6 degradation DC50; HeLa LgBiT clone 4.14 HiBiT-STAT6, 4-24 h incubation; values given for compounds with >80% Emax; geometric mean
# Procedure: This was a HiBit based assay. A HeLa cell line stably transfected with a small protein, LgBit (Large Bit) was obtained from Promega. These cells express endogenous STAT6. A small 11 amino acid gene sequence (HiBiT) was inserted in the STAT6 gene using CRISPR technology. Once STAT6 protein is expressed in the cells, the HiBiT sequence will bind the LgBit in the cells resulting in a functional NanoBiT protein, giving a luminescent tag to STAT6, see FIG. 2.
# Single cell clones were prepared and the clone 4.14 was selected for the assay based on that clone showing high luminescence, high STAT6 phosphorylation upon stimulation with IL-4, and inhibition of luminescence when cells were treated with STAT6 siRNA.
# HeLa LgBiT clone 4.14 cells were suspended in DMEM with 10% FCS, 1% Pen/Strep, Na-pyrovate and Hygromycin B, at a concentration of 1.25*105 cells pr mL. 5000 cells were added pr well of a 384 well plate and 20 nL of compound was added by Echo® liquid handler. NN6394A (terfenadine, a toxic compound) was added to control wells at 50 μM concentration to establish the assay window. In these wells the cells are dead which equals 100% degradation of STAT6. […]
# The luminescence in the wells as a measure of non-degraded STAT6 was measured in a plate reader (BMG Pherastar FSX). […]
compound,measurement,value
Cc1cc(C(=O)N2CCC(CN3CCN(Cc4ccc5c(c4)C(C)(C)C(=O)N5C4CCC(=O)NC4=O)C[C@@H]3C)CC2)cc(F)c1C1=CCN([C@@H](C)c2cc3c(-n4ccc5c(c4=O)CCN5)ccnc3n2C)CC1 (stereo partly shown),DC50,1.4 nM
